The target in the experiment is BAG3 (BCL-2-associated athanogene 3) (human (endogenous in HEK293T)) (UniProt O95817). Nature of the experiment: affinity purification with mass spectrometry; endogenous BAG3 immunoprecipitated with anti-BAG3 antibody and Protein A/G magnetic beads from HEK293T lysate; cells treated with DMSO (basal) or 10 µM MG132 for 6 h; IgG IP (MG132_IgG) as control; label-free quantification, three biological replicates.

Protein sequences, listed by entry. Tags and fused reporters are not part of them.
UniProt O95817: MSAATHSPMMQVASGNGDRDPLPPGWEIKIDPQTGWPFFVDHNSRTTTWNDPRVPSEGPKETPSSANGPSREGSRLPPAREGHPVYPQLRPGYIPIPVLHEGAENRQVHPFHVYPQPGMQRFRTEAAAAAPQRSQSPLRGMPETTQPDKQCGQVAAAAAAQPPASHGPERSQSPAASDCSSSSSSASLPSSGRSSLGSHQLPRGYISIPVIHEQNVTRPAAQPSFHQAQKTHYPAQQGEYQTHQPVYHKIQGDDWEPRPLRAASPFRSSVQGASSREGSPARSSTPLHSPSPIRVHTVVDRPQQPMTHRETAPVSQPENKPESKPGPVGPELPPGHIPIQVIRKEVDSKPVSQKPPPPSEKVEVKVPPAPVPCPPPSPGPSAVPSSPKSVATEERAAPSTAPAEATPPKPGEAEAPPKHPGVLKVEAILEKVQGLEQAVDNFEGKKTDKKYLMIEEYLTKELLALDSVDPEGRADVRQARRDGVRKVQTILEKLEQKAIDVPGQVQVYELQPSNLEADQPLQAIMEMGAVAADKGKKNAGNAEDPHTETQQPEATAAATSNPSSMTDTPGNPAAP

These are yes or no findings as the source states them, for the method shown. Binding seen in cells or lysates may run through a third protein. Here binding means that the protein was enriched with, or labelled near, the bait; the list need not be complete.

B1: CSTF2 (protein, UniProt P33240 1-577)
chain: MAGLTVRDPAVDRSLRSVFVGNIPYEATEEQLKDIFSEVGPVVSFRLVYDRETGKPKGYGFCEYQDQETALSAMRNLNGREFSGRALRVDNAASEKNKEELKSLGTGAPVIESPYGETISPEDAPESISKAVASLPPEQMFELMKQMKLCVQNSPQEARNMLLQNPQLAYALLQAQVVMRIVDPEIALKILHRQTNIPTLIAGNPQPVHGAGPGSGSNVSMNQQNPQAPQAQSLGGMHVNGAPPLMQASMQGGVPAPGQMPAAVTGPGPGSLAPGGGMQAQVGMPGSGPVSMERGQVPMQDPRAAMQRGSLPANVPTPRGLLGDAPNDPRGGTLLSVTGEVEPRGYLGPPHQGPPMHHVPGHESRGPPPHELRGGPLPEPRPLMAEPRGPMLDQRGPPLDGRGGRDPRGIDARGMEARAMEARGLDARGLEARAMEARAMEARAMEARAMEARAMEVRGMEARGMDTRGPVPGPRGPIPSGMQGPSPINMGAVVPQGSRQVPVMQGTGMQGASIQGGSQPGGFSPGQNQVTPQDHEKAALIMQVLQLTADQIAMLPPEQRQSILILKEQIQKSTGAP
Turning to B1, the binding entry is reported as “binds”.

B2: DnaJ homolog subfamily C member 7 (protein, UniProt Q99615 1-494)
chain: MAAAAECDVVMAATEPELLDDQEAKREAETFKEQGNAYYAKKDYNEAYNYYTKAIDMCPKNASYYGNRAATLMMLGRFREALGDAQQSVRLDDSFVRGHLREGKCHLSLGNAMAACRSFQRALELDHKNAQAQQEFKNANAVMEYEKIAETDFEKRDFRKVVFCMDRALEFAPACHRFKILKAECLAMLGRYPEAQSVASDILRMDSTNADALYVRGLCLYYEDCIEKAVQFFVQALRMAPDHEKACIACRNAKALKAKKEDGNKAFKEGNYKLAYELYTEALGIDPNNIKTNAKLYCNRGTVNSKLRKLDDAIEDCTNAVKLDDTYIKAYLRRAQCYMDTEQYEEAVRDYEKVYQTEKTKEHKQLLKNAQLELKKSKRKDYYKILGVDKNASEDEIKKAYRKRALMHHPDRHSGASAEVQKEEEKKFKEVGEAFTILSDPKKKTRYDSGQDLDEEGMNMGDFDPNNIFKAFFGGPGGFSFEASGPGNFFFQFG
Take B2: the binding result is reported as “binds”.

B3: Transcription factor AP-4 (protein, UniProt Q01664 1-338)
chain: MEYFMVPTQKVPSLQHFRKTEKEVIGGLCSLANIPLTPETQRDQERRIRREIANSNERRRMQSINAGFQSLKTLIPHTDGEKLSKAAILQQTAEYIFSLEQEKTRLLQQNTQLKRFIQELSGSSPKRRRAEDKDEGIGSPDIWEDEKAEDLRREMIELRQQLDKERSVRMMLEEQVRSLEAHMYPEKLKVIAQQVQLQQQQEQVRLLHQEKLEREQQQLRTQLLPPPAPTHHPTVIVPAPPPPPSHHINVVTMGPSSVINSVSTSRQNLDTIVQAIQHIEGTQEKQELEEEQRRAVIVKPVRSCPEAPTSDTASDSEASDSDAMDQSREEPSGDGELP
Take B3: the binding result was “binds”.

B4: EIF5B (protein, UniProt O60841 1-1220)
chain: MGKKQKNKSEDSTKDDIDLDALAAEIEGAGAAKEQEPQKSKGKKKKEKKKQDFDEDDILKELEELSLEAQGIKADRETVAVKPTENNEEEFTSKDKKKKGQKGKKQSFDDNDSEELEDKDSKSKKTAKPKVEMYSGSDDDDDFNKLPKKAKGKAQKSNKKWDGSEEDEDNSKKIKERSRINSSGESGDESDEFLQSRKGQKKNQKNKPGPNIESGNEDDDASFKIKTVAQKKAEKKERERKKRDEEKAKLRKLKEKEELETGKKDQSKQKESQRKFEEETVKSKVTVDTGVIPASEEKAETPTAAEDDNEGDKKKKDKKKKKGEKEEKEKEKKKGPSKATVKAMQEALAKLKEEEERQKREEEERIKRLEELEAKRKEEERLEQEKRERKKQKEKERKERLKKEGKLLTKSQREARARAEATLKLLQAQGVEVPSKDSLPKKRPIYEDKKRKKIPQQLESKEVSESMELCAAVEVMEQGVPEKEETPPPVEPEEEEDTEDAGLDDWEAMASDEETEKVEGNKVHIEVKENPEEEEEEEEEEEEDEESEEEEEEEGESEGSEGDEEDEKVSDEKDSGKTLDKKPSKEMSSDSEYDSDDDRTKEERAYDKAKRRIEKRRLEHSKNVNTEKLRAPIICVLGHVDTGKTKILDKLRHTHVQDGEAGGITQQIGATNVPLEAINEQTKMIKNFDRENVRIPGMLIIDTPGHESFSNLRNRGSSLCDIAILVVDIMHGLEPQTIESINLLKSKKCPFIVALNKIDRLYDWKKSPDSDVAATLKKQKKNTKDEFEERAKAIIVEFAQQGLNAALFYENKDPRTFVSLVPTSAHTGDGMGSLIYLLVELTQTMLSKRLAHCEELRAQVMEVKALPGMGTTIDVILINGRLKEGDTIIVPGVEGPIVTQIRGLLLPPPMKELRVKNQYEKHKEVEAAQGVKILGKDLEKTLAGLPLLVAYKEDEIPVLKDELIHELKQTLNAIKLEEKGVYVQASTLGSLEALLEFLKTSEVPYAGINIGPVHKKDVMKASVMLEHDPQYAVILAFDVRIERDAQEMADSLGVRIFSAEIIYHLFDAFTKYRQDYKKQKQEEFKHIAVFPCKIKILPQYIFNSRDPIVMGVTVEAGQVKQGTPMCVPSKNFVDIGIVTSIEINHKQVDVAKKGQEVCVKIEPIPGESPKMFGRHFEATDILVSKISRQSIDALKDWFRDEMQKSDWQLIVELKKVFEII
Regarding B4, the binding entry is reported as “binds”.

B5: PATL1 (protein, UniProt Q86TB9 1-770)
chain: MFRYESLEDCPLDEDEDAFQGLGEEDEEIDQFNDDTFGSGAVDDDWQEAHERLAELEEKLPVAVNEQTGNGERDEMDLLGDHEENLAERLSKMVIENELEDPAIMRAVQTRPVLQPQPGSLNSSIWDGSEVLRRIRGPLLAQEMPTVSVLEYALPQRPPQGPEDDRDLSERALPRRSTSPIIGSPPVRAVPIGTPPKQMAVPSFTQQILCPKPVHVRPPMPPRYPAPYGERMSPNQLCSVPNSSLLGHPFPPSVPPVLSPLQRAQLLGGAQLQPGRMSPSQFARVPGFVGSPLAAMNPKLLQGRVGQMLPPAPGFRAFFSAPPSATPPPQQHPPGPGPHLQNLRSQAPMFRPDTTHLHPQHRRLLHQRQQQNRSQHRNLNGAGDRGSHRSSHQDHLRKDPYANLMLQREKDWVSKIQMMQLQSTDPYLDDFYYQNYFEKLEKLSAAEEIQGDGPKKERTKLITPQVAKLEHAYKPVQFEGSLGKLTVSSVNNPRKMIDAVVTSRSEDDETKEKQVRDKRRKTLVIIEKTYSLLLDVEDYERRYLLSLEEERPALMDDRKHKICSMYDNLRGKLPGQERPSDDHFVQIMCIRKGKRMVARILPFLSTEQAADILMTTARNLPFLIKKDAQDEVLPCLLSPFSLLLYHLPSVSITSLLRQLMNLPQSAATPALSNPHLTAVLQNKFGLSLLLILLSRGEDLQSSDPATESTQNNQWTEVMFMATRELLRIPQAALAKPISIPTNLVSLFSRYVDRQKLNLLETKLQLVQGIR
Turning to B5, the binding entry was “binds”.

B6: ASNS (protein, UniProt P08243 1-561)
chain: MCGIWALFGSDDCLSVQCLSAMKIAHRGPDAFRFENVNGYTNCCFGFHRLAVVDPLFGMQPIRVKKYPYLWLCYNGEIYNHKKMQQHFEFEYQTKVDGEIILHLYDKGGIEQTICMLDGVFAFVLLDTANKKVFLGRDTYGVRPLFKAMTEDGFLAVCSEAKGLVTLKHSATPFLKVEPFLPGHYEVLDLKPNGKVASVEMVKYHHCRDVPLHALYDNVEKLFPGFEIETVKNNLRILFNNAVKKRLMTDRRIGCLLSGGLDSSLVAATLLKQLKEAQVQYPLQTFAIGMEDSPDLLAARKVADHIGSEHYEVLFNSEEGIQALDEVIFSLETYDITTVRASVGMYLISKYIRKNTDSVVIFSGEGSDELTQGYIYFHKAPSPEKAEEESERLLRELYLFDVLRADRTTAAHGLELRVPFLDHRFSSYYLSLPPEMRIPKNGIEKHLLRETFEDSNLIPKEILWRPKEAFSDGITSVKNSWFKILQEYVEHQVDDAMMANAAQKFPFNTPKTKEGYYYRQVFERHYPGRADWLSHYWMPKWINATDPSARTLTHYKSAVKA
As for B6, the binding entry was “binds”.

B7: RBFOX1 (protein, UniProt Q9NWB1 1-397)
chain: MNCEREQLRGNQEAAAAPDTMAQPYASAQFAPPQNGIPAEYTAPHPHPAPEYTGQTTVPEHTLNLYPPAQTHSEQSPADTSAQTVSGTATQTDDAAPTDGQPQTQPSENTENKSQPKRLHVSNIPFRFRDPDLRQMFGQFGKILDVEIIFNERGSKGFGFVTFENSADADRAREKLHGTVVEGRKIEVNNATARVMTNKKTVNPYTNGWKLNPVVGAVYSPEFYAGTVLLCQANQEGSSMYSAPSSLVYTSAMPGFPYPAATAAAAYRGAHLRGRGRTVYNTFRAAAPPPPIPAYGGVVYQDGFYGADIYGGYAAYRYAQPTPATAAAYSDSYGRVYAADPYHHALAPAPTYGVGAMNAFAPLTDAKTRSHADDVGLVLSSLQASIYRGGYNRFAPY
For the molecule B7, the binding result is reported as “binds”.

B8: CSTF1 (protein, UniProt Q05048 1-431)
chain: MYRTKVGLKDRQQLYKLIISQLLYDGYISIANGLINEIKPQSVCAPSEQLLHLIKLGMENDDTAVQYAIGRSDTVAPGTGIDLEFDADVQTMSPEASEYETCYVTSHKGPCRVATYSRDGQLIATGSADASIKILDTERMLAKSAMPIEVMMNETAQQNMENHPVIRTLYDHVDEVTCLAFHPTEQILASGSRDYTLKLFDYSKPSAKRAFKYIQEAEMLRSISFHPSGDFILVGTQHPTLRLYDINTFQCFVSCNPQDQHTDAICSVNYNSSANMYVTGSKDGCIKLWDGVSNRCITTFEKAHDGAEVCSAIFSKNSKYILSSGKDSVAKLWEISTGRTLVRYTGAGLSGRQVHRTQAVFNHTEDYVLLPDERTISLCCWDSRTAERRNLLSLGHNNIVRCIVHSPTNPGFMTCSDDFRARFWYRRSTTD
In the case of B8, the binding result was “binds”.

B9: RBFOX3 (protein, UniProt A6NFN3 1-312)
chain: MAQPYPPAQYPPPPQNGIPAEYAPPPPHPTQDYSGQTPVPTEHGMTLYTPAQTHPEQPGSEASTQPIAGTQTVPQTDEAAQTDSQPLHPSDPTEKQQPKRLHVSNIPFRFRDPDLRQMFGQFGKILDVEIIFNERGSKGFGFVTFETSSDADRAREKLNGTIVEGRKIEVNNATARVMTNKKTGNPYTNGWKLNPVVGAVYGPEFYAVTGFPYPTTGTAVAYRGAHLRGRGRAVYNTFRAAPPPPPIPTYGAVVYQDGFYGAEIYGGYAAYRYAQPAAAAAAYSDSYGRVYAAADPYHHTIGPAATYSIGTM
In the case of B9, the binding entry is listed as “binds”.

B10: Protein Njmu-R1 (protein, UniProt Q9HAS0 1-396)
chain: MLPSLQESMDGDEKELESSEEGGSAEERRLEPPSSSHYCLYSYRGSRLAQQRGDSEDGSPSGTNAETPSGDDFSLSLADTNLPSEVEPELRSFIAKRLSRGAVFEGLGNVASVELKIPGYRVGCYYCLFQNEKLLPETVTIDSERNPSEYVVCFLGGSEKGLELFRLELDKYIQGLKNNMNCEARGLESHIKSYLSSWFEDVVCPIQRVVLLFQEKLTFLLHAALSYTPVEVKESDEKTKRDINRFLSVASLQGLIHEGTMTSLCMAMTEEQHKSVVIDCSSSQPQFCNAGSNRFCEDWMQAFLNGAKGGNPFLFRQVLENFKLKAIQDTNNLKRFIRQAEMNHYALFKCYMFLKNCGSGDILLKIVKVEHEEMPEAKNVIAVLEEFMKEALDQSF
Take B10: the binding result was “binds”.

For the origin of these results see publication PMC7694386.
